According to article PMC12418388:
Results are given in words; binding and its absence hold for the method and conditions named. In cells and extracts the contact can be indirect. Some entries that bind do so weakly or less than the wild type. Each block holds one binder with its values, some of them ahead of it.

Biological target: T1, wild-type DDX6 of the co-IP experiments of Supplementary Fig. S6 (UniProt P54823)
T1 sequence: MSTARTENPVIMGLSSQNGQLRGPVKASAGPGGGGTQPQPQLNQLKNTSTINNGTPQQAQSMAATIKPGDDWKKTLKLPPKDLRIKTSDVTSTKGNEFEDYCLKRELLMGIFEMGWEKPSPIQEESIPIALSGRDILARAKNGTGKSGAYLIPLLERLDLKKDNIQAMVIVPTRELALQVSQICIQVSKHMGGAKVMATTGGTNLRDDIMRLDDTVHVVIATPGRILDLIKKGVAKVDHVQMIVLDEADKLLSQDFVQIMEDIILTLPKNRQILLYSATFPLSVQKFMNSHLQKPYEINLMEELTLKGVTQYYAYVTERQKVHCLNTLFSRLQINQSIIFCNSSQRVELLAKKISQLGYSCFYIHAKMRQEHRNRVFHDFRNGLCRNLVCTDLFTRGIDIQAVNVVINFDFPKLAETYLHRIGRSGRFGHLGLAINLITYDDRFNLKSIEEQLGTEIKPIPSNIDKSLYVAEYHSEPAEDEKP
Assay: co-IP; co-IP of wild-type, truncated and mutant DDX6 proteins (Supplementary Fig. S6A, B); cells not given; western blot

binding: binds
B1: EDC3 (protein, UniProt Q8K2D3 1-508)
chain: MAMDWLGSIVSINCGDSLGVYQGRVSAVDQVSQTISLTRPFHNGVKCLVPEVTFRAGDITELKILEIPGPGDNQQVGDLHQTELGPSGVGYQMSISQNGTGKVVKKPASSSSAPQSIPKRTDVKSQDVAISPQQQQCSKSYVDRHMESLSQSKSFRRRHNSWSSSSRHPNQATPKKSGLKNGQMKNKDDECFGDDIEELPDTDFDFEGNLALFDKAAVFEEIDTYERRSGSRSRGVPNERPARYRHDENILESEPIVYRRITVPHSVSKEFCTDSGLVVPSVSYELHKKLLSVAEKHGLTLERRLEMTGVCASQMALTLLGGPNRLNPKNVHQRPTVALLCGPHVKGAQGISCGRHLANHDVQVILFLPNFVKMLESITNELSLFSKTQGQQVSSLRDLPASPVDLVINCLDCPENAFLRDQPWYKAAVAWANQNRAPVLSIDPPVHEVEQGIDAKWSLALGLPLPLGEHAGRVYLCDIGIPQQVFQEVGINYHSPFGCKFVIPLHSA

binding: binds
B2: eIF4E transporter (4E-T) (protein, UniProt Q9EST3 1-983)
chain: MEKSVAETENGDAFLELKKLPTSKSPHRYTKEELLDIKERPYSKQRPSCLSEKYDSDGVWDPEKWHASLYPASGRSSPVESLKKESESDRPSLVRRIADPRERVKEDDLDVVLSPQRRSFGGGCHVTAAVSSRRSGSPLEKDSDGLRLLGGRRIGSGRIISARAFEKDHRLSDKDLRDLRDRDRERDYKDKRFRREFGDSKRVFGERRRNDSYTEEEPEWFSAGPTSQSETIELTGFDDKILEEDHKGRKRTRRRTASVKEGIVECNGGVAEEDEVEVILAQEPSADQEVPRDVILPEQSPGEFDFNEFFNLDKVPCLASMIEDVLGEGSVSASRFSRWFSNPSRSGSRSSSLGSTPHEELERLAGLEQAVLSPGQNSGNYFAPIPSEDHAENKVDILEMLQKAKVDLKPLLSSLSANKEKLKESSHSGVVLSVEEVEAGLKGLKVDQQMKNSTPFMAEHLEETLSAASSNRQLKKDGDMTAFNKLVNTMKASGTLPTQPKVSRNVESHLLAPAEIPGQPVSKNILQELLGQPVQRPASSNLLSGLMGSLEATASLLSQRAPSPPMSQVFRTQAASADYLHPRIPSPIGFPSGPQQLLGDPFQGMRKPMSPVSAQMSQLELQQAALEGLALPHDLAVQTAPFYQPGFSKPQVDRTRDGLRNRQQRMSKSPAPMHGGNSSSPAPAASITSMLSPSFTPTSVIRKMYESREKTKEEMAPGMVVPGDGKEDTQKTSEENLLSSNPIPNTDQDSSTTNPKLSTLQRSSCSTPLSQTSRYTKEQDYRPKTAGRKTPTLASPVPGTPFLRPTHQVPLVPHVPIVRPAHQLHPGLVQRLIAQGVHPQHLPSLLQAGVLPPGIDMAPLQGLSGPLLGQPLYPLVSAASHPLLNPRPGTPLHLAVMQQQLQRSVLHPPGSSSQAAAISVQTPQNVPSRSGMPHMHSQLEHRTSQRSSSPVGLAKWFGSDVLQQPLPSMPTKVISVDELEYRQ
